For two compounds, IC50 and Kd results are on record in US20050032810A1, “Novel anthelmintic and insecticidal compositions” (priority 2003, published 2005).

By UniProt entry, the sequences of proteins in these tests, tags left out. Residues count along the entry.
UniProt Q7KRX1, 1-357: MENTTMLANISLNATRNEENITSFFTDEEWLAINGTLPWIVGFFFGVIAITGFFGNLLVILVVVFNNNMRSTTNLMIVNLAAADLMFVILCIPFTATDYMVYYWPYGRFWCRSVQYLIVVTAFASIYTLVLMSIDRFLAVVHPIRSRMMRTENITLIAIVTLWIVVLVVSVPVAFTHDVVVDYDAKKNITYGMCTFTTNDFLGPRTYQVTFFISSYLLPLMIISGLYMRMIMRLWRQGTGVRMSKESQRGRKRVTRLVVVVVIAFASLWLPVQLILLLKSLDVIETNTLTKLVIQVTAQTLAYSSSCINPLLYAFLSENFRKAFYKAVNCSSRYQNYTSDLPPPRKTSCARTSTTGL

The test addresses Drosophila type 2 allatostatin receptor (Dm4) (Drosophila melanogaster, UniProt Q7KRX1).

SMILES strings stand for the structures. Structures were worked out from names or drawings and are uncertain.

On to `CC(C)C[C@H](NC(=O)CNC(=O)[C@H](Cc1ccccc1)NC(=O)[C@H](CO)NC(=O)[C@H](Cc1ccc(O)cc1)NC(=O)[C@@H]1CCCN1C(=O)[C@H](CCCNC(=N)N)NC(=O)[C@@H](N)CO)C(N)=O`, for which the IC50 was found to be 0.01 nM.

With `CC(C)C[C@H](NC(=O)CNC(=O)[C@H](Cc1ccccc1)NC(=O)[C@H](CO)NC(=O)[C@H](Cc1ccc(O)c([125I])c1)NC(=O)[C@@H]1CCCN1C(=O)[C@H](CCCNC(=N)N)NC(=O)[C@@H](N)CO)C(N)=O`, the Kd stood at 0.081 nM.

In general, IC50 refers to the concentration that gives 50% inhibition. High values mean weaker potency, low ones greater potency. In general, Kd refers to a measure of binding affinity in units of concentration. The low end stands for a tighter complex, the high end for a looser complex.
